Test [1] deals with 5-HT2B-R-Rluc (5-HT2B receptor fused to Renilla luciferase, BRET donor) (UniProt P41595). As to the kind of experiment: FRET or BRET. For orientation: Bioluminescence resonance energy transfer reports proximity on the nanometre scale.
The target of test [2] is HA-tagged 5-HT2B receptor (UniProt P41595). As to the kind of experiment: co-IP.

Amino acid sequences for entries named in this document (tags omitted).
UniProt P41595: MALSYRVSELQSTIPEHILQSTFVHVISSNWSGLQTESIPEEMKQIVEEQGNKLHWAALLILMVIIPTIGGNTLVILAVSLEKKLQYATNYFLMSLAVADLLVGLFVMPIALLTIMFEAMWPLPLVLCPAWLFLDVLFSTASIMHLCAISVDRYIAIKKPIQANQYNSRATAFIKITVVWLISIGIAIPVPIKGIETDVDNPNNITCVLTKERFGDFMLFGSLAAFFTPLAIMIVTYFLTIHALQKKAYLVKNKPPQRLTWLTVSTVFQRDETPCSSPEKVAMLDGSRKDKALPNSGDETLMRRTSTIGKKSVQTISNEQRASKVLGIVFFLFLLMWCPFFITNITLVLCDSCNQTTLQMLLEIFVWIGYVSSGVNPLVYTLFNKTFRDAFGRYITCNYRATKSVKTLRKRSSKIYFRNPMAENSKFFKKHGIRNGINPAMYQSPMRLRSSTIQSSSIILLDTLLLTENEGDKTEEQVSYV
UniProt P08908: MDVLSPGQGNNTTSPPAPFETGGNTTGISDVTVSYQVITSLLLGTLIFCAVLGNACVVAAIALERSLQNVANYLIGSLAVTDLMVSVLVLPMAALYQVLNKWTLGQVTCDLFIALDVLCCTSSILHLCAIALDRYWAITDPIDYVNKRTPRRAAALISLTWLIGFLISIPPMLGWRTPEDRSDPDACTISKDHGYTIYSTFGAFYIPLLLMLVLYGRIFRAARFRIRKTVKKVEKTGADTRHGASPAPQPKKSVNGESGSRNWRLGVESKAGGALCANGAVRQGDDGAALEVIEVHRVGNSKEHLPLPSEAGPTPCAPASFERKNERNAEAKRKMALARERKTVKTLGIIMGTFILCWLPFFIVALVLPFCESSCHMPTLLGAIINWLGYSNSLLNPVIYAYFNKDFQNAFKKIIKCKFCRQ

This is an account of results in doi:10.1101/2022.12.09.519723.

Results are given in words; binding and its absence hold for the method and conditions named. In cells and extracts the contact can be indirect. Some entries that bind do so weakly or less than the wild type.

“5-HT1A-R-YFP (5-HT1A receptor fused to yellow fluorescent protein, BRET acceptor) (from UniProt P08908 1-422)”: the binding result in test [1] was “binds”. Still for that read-out and setting: in the case of “YFP-tagged 5-HT2B-R (5-HT2B receptor fused to yellow fluorescent protein, BRET acceptor control) (from UniProt P41595 1-481)” it was “no binding”.

In the case of “myc-tagged 5-HT1A receptor (from UniProt P08908 1-422)”, in test [2], the binding result is given as “binds”.
